# The supplement of paper PMC10849652
# Protein sequences, listed by entry. Tags and fused reporters are not part of them. Lines headed by an entry give the natural chain unless they say otherwise; changes in a name come on top.
# UniProt Q9NR50: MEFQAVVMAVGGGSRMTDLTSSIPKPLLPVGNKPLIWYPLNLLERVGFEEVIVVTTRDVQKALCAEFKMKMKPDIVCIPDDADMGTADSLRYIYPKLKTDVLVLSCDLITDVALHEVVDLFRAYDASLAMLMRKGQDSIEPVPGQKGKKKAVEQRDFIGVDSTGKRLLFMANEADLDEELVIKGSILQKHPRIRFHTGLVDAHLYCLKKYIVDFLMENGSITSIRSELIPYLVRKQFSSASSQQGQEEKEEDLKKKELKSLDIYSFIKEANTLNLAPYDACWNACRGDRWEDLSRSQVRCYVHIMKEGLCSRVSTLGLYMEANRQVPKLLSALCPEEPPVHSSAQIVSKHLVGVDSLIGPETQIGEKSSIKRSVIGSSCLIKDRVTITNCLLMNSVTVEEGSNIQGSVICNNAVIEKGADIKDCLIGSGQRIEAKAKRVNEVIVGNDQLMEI
# UniProt Q13542: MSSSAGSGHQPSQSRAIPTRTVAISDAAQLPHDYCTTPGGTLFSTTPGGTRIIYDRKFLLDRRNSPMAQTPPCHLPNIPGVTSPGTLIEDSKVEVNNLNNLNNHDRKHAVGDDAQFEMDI
# UniProt Q969X5: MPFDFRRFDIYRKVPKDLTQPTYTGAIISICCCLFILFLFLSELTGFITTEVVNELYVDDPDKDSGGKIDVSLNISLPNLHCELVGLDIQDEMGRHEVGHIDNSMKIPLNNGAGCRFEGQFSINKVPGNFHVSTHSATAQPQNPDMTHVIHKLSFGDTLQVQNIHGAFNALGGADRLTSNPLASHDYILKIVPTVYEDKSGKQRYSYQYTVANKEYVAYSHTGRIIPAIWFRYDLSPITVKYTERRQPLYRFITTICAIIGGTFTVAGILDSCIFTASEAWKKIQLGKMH
# UniProt Q9HC35: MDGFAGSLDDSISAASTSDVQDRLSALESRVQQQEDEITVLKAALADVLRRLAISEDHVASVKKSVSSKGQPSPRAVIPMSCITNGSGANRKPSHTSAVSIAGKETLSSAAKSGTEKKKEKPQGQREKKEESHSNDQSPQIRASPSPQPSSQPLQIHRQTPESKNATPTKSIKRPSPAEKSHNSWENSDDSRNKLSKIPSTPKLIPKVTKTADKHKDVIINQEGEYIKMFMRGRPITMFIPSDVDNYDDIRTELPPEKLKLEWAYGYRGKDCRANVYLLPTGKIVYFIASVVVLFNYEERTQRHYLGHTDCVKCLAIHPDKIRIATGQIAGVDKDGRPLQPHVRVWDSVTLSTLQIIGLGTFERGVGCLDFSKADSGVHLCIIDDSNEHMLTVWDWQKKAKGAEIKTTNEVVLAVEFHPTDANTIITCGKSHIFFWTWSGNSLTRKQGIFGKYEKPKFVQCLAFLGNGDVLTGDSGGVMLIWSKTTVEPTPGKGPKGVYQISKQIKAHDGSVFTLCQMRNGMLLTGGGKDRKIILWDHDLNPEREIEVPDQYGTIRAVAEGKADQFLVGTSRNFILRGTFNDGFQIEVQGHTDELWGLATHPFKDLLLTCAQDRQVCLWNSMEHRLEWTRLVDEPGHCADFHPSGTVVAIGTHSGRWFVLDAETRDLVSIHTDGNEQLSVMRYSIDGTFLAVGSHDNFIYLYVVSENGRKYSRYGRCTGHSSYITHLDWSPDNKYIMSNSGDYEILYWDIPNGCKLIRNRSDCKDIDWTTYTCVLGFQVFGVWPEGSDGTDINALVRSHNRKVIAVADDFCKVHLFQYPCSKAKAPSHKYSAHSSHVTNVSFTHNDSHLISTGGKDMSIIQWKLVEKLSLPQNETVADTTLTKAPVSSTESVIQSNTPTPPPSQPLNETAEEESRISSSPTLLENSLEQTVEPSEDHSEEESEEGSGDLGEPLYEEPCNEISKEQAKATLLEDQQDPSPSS
# UniProt Q9UBQ5, whole entry, looked up: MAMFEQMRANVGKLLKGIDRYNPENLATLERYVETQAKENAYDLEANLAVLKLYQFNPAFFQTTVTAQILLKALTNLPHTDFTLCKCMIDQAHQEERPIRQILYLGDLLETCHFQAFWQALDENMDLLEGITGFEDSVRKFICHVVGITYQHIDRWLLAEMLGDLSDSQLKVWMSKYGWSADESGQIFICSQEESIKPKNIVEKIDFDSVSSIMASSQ
# UniProt Q15717, whole entry, looked up: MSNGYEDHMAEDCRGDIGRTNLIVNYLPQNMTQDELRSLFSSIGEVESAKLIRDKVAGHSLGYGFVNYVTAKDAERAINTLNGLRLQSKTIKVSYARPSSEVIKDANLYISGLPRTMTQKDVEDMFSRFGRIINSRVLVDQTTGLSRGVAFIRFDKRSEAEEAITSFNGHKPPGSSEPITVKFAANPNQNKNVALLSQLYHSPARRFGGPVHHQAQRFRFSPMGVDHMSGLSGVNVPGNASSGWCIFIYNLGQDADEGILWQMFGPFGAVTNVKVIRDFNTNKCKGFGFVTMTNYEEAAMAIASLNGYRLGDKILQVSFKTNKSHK
# UniProt P13929, whole entry, looked up: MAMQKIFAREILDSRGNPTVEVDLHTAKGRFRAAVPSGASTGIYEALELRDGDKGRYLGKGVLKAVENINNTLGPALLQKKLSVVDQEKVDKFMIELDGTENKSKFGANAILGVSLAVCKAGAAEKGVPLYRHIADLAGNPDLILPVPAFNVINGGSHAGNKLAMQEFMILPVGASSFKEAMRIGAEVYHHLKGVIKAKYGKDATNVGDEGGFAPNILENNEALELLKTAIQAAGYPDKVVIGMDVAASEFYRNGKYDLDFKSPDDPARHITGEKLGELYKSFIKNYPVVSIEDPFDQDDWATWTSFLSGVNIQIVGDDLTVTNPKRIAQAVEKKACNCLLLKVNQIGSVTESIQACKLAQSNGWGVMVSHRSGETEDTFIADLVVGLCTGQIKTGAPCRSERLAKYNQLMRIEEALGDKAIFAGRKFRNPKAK
# UniProt Q9BQI3, whole entry, looked up: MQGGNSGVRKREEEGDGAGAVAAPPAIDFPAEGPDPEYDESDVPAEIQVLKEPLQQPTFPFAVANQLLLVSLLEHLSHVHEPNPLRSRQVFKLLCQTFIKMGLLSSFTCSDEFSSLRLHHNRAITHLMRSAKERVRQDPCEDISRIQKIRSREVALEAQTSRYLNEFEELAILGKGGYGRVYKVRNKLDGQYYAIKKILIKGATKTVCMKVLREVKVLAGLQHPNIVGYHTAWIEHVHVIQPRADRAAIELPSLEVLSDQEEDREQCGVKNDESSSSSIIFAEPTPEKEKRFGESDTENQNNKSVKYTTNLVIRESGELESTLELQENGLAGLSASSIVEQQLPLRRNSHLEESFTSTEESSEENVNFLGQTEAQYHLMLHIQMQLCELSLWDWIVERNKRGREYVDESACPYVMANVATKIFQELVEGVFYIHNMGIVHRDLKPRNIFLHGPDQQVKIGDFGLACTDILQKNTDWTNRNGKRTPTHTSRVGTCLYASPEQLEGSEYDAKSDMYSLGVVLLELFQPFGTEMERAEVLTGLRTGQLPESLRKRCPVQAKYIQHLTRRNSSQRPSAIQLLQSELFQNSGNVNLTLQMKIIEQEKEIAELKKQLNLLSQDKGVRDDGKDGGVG
# UniProt Q14152, whole entry, looked up: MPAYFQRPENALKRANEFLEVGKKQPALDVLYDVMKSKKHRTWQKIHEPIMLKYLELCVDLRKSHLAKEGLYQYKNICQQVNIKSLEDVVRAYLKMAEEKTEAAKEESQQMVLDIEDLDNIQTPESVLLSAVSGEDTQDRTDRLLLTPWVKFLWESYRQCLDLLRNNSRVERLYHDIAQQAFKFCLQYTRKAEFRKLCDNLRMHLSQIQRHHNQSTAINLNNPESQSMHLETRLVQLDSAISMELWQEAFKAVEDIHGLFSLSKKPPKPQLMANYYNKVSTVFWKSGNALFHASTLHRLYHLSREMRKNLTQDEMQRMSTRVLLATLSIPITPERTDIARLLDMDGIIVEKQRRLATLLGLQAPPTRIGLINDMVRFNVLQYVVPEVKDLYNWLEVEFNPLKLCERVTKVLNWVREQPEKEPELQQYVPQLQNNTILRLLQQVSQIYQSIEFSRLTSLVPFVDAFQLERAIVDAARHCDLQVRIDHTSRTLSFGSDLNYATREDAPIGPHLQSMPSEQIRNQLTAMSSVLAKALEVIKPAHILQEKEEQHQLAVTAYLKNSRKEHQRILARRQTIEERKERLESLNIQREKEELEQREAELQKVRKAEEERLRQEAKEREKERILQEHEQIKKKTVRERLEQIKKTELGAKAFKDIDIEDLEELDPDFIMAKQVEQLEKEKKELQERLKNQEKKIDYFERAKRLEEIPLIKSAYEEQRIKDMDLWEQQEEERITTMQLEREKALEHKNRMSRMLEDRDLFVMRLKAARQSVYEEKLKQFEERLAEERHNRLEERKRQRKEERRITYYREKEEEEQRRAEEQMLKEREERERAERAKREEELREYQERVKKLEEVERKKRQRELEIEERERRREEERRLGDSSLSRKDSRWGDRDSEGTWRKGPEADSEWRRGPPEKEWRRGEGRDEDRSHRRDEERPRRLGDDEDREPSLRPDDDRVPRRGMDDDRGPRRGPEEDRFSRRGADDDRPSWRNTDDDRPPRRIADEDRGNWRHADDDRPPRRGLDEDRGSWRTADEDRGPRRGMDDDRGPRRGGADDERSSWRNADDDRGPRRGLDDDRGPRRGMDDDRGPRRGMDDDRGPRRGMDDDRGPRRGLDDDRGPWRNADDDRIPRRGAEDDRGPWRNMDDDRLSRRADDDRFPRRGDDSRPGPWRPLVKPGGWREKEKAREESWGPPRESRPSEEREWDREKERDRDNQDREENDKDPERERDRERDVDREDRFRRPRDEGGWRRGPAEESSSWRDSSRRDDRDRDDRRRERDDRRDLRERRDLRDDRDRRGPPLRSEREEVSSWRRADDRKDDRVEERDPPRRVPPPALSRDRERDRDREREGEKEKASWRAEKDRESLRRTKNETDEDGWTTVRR
# UniProt P06733, whole entry, looked up: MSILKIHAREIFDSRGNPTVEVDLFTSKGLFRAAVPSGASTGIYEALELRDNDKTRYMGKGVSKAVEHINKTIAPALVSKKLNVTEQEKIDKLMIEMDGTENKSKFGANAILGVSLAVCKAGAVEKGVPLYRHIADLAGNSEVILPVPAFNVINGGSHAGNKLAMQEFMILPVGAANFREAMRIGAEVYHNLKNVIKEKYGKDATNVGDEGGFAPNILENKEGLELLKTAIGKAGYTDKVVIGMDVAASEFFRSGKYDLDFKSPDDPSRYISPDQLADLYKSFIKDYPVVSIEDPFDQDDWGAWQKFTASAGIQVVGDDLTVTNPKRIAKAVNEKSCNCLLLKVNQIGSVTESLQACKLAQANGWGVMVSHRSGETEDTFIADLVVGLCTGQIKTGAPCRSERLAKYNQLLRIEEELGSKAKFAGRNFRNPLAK
# UniProt Q5NDL2: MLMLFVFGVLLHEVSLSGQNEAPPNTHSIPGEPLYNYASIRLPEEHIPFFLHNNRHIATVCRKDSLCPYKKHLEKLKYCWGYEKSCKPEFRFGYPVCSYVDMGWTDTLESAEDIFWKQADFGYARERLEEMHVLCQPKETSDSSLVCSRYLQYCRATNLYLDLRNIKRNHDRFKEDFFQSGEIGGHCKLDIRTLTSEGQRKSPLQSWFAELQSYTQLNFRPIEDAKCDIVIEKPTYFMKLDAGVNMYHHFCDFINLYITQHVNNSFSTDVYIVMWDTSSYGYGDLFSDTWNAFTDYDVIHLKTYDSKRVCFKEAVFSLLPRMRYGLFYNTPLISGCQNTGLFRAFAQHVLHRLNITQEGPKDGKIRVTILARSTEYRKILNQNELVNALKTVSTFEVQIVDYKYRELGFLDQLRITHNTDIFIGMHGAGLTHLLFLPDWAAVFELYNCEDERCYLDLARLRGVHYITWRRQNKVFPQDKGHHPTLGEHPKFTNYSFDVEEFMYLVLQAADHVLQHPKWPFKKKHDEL
# UniProt Q14241: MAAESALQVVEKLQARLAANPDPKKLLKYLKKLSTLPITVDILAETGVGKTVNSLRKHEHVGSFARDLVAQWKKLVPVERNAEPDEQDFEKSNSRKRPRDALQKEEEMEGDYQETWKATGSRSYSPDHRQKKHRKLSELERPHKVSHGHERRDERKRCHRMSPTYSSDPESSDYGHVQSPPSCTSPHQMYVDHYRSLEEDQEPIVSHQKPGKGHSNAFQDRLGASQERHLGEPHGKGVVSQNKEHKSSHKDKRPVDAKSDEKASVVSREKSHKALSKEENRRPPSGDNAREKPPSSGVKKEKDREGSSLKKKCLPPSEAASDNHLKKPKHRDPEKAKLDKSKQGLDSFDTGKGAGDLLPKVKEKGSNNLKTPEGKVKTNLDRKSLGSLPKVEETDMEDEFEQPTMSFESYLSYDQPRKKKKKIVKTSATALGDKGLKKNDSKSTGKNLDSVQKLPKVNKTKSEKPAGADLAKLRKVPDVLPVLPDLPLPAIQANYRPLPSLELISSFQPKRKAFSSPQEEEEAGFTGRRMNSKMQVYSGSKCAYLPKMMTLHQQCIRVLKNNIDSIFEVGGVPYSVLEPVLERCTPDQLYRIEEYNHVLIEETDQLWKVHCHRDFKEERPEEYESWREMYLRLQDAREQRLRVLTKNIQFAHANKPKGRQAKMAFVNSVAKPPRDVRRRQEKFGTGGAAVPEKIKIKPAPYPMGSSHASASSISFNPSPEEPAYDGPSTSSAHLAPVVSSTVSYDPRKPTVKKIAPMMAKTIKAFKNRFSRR
# This is one part of the list.
# Columns and labels:
# Test in all cases: log2 fold change, soluble protein after heating vs DMSO (PISA); higher = thermal stabilisation; K562 lysate, 10 uM; active = over 0.2 and 3.5 SD of the protein, either way, in both replicates (recomputed)
# vemurafenib = compound: CCCS(=O)(=O)Nc1ccc(F)c(C(=O)c2c[nH]c3ncc(-c4ccc(Cl)cc4)cc23)c1F [vemurafenib]
# In short: (§1)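 Thermal stability, expressed as log-two fold change relative to solvent controls, is given from duplicates. Crude K562 extract in PBS pH 7.4 with 1 mM MgCl2, at 1 mg/mL protein, was treated with 10 μM compound for 30 min and heated in aliquots for 3 min across 48°C-58°C. After pooling, adjustment to 0.5% NP-40 at 4°C and centrifugation at 21,000xg for 90 min, supernatant protein was measured by TMTpro 16plex LC-MS/MS with channel sums equalised.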
# [1] = compound: CCCS(=O)(=O)Nc1ccc(F)c(C(=O)c2c[nH]c3ncc(Cl)cc23)c1F
# In short: as §1
# barasertib = compound: CCN(CCCOc1ccc2c(Nc3cc(CC(=O)Nc4cccc(F)c4)[nH]n3)ncnc2c1)CCOP(=O)(O)O [barasertib]
# In short: as §1
# [2] = compound: CC[C@@H]1C(=O)N(C)c2cnc(Nc3ccc(C(=O)NC4CCN(C)CC4)cc3OC)nc2N1C1CCCC1
# In short: as §1
# volasertib = compound: CC[C@@H]1C(=O)N(C)c2cnc(Nc3ccc(C(=O)N[C@H]4CC[C@H](N5CCN(CC6CC6)CC5)CC4)cc3OC)nc2N1C(C)C [volasertib]
# In short: as §1
# [3] = compound: CCn1c(C(=O)N(C2CC2)C2CC2)cc2c3c(ncn3C)c(Nc3cc(C)n(C)n3)nc21
# In short: as §1
# [4] = compound: CCn1cc(-c2ccnc3[nH]c(-c4cccc(CN(C)C)c4)cc23)c(-c2ccc(NC(=O)N(C)C)cc2)n1
# In short: as §1
# [5] = compound: CN1CCC(CNc2ccc3ncc(-c4cccc(OC(F)(F)F)c4)n3n2)CC1
# In short: as §1
# saracatinib = compound: CN1CCN(CCOc2cc(OC3CCOCC3)c3c(Nc4c(Cl)ccc5c4OCO5)ncnc3c2)CC1 [saracatinib]
# In short: as §1
# sotrastaurin = compound: CN1CCN(c2nc(C3=C(c4c[nH]c5ccccc45)C(=O)NC3=O)c3ccccc3n2)CC1 [sotrastaurin]
# In short: as §1
# alvocidib = compound: CN1CC[C@H](c2c(O)cc(O)c3c(=O)cc(-c4ccccc4Cl)oc23)[C@H](O)C1 [alvocidib]
# In short: as §1
# Tubastatin A = compound: CN1CCc2c(c3ccccc3n2Cc2ccc(C(=O)NO)cc2)C1 [Tubastatin A]
# In short: as §1
# [6] = compound: CNC(=O)C1=CC=CC=C1NC2=NC(=NC=C2Cl)NC3=C(C=C(C=C3)N4CCOCC4)OC
# In short: as §1
# defactinib = compound: CNC(=O)c1ccc(Nc2ncc(C(F)(F)F)c(NCc3nccnc3N(C)S(C)(=O)=O)n2)cc1 [defactinib]
# In short: as §1
# [7] = compound: CNc1nc(-c2ccc3c(N)n[nH]c3c2)cc(N2C[C@@H](C(=O)NC3CCCCC3)CC[C@H]2C)n1
# In short: as §1
# encorafenib = compound: COC(=O)N[C@@H](C)CNc1nccc(-c2cn(C(C)C)nc2-c2cc(Cl)cc(NS(C)(=O)=O)c2F)n1 [encorafenib]
# In short: as §1
# [8] = compound: COC(=O)[C@H](CCSC)NC(=O)C1=C(C=C(C=C1)NC[C@H](CS)N)C2=CC=CC=C2
# In short: as §1
# alisertib = compound: COc1cc(Nc2ncc3c(n2)-c2ccc(Cl)cc2C(c2c(F)cccc2OC)=NC3)ccc1C(=O)O [alisertib]
# In short: as §1
# [9] = compound: COc1cc2nc(-c3cc(F)ccc3O)nc(N[C@@H]3CNC[C@H]3C(C)(C)O)c2cc1OC
# In short: as §1
# gefitinib = compound: COc1cc2ncnc(Nc3ccc(F)c(Cl)c3)c2cc1OCCCN1CCOCC1 [gefitinib]
# In short: as §1
Target,log2 fold change (vemurafenib),log2 fold change [1],log2 fold change (barasertib),log2 fold change [2],log2 fold change (volasertib),log2 fold change [3],log2 fold change [4],log2 fold change [5],log2 fold change (saracatinib),log2 fold change (sotrastaurin),log2 fold change (alvocidib),log2 fold change (Tubastatin A),log2 fold change [6],log2 fold change (defactinib),log2 fold change [7],log2 fold change (encorafenib),log2 fold change [8],log2 fold change (alisertib),log2 fold change [9],log2 fold change (gefitinib)
EIF2B3 (UniProt Q9NR50),inactive: 0.013,inactive: 0.021,inactive: -0.008,inactive: -0.028,inactive: -0.02,inactive: 0.044,active: 0.287,inactive: -0.111,inactive: 0.005,inactive: -0.003,inactive: 0.071,inactive: -0.103,inactive: -0.009,inactive: 0.008,inactive: -0.012,inactive: -0.007,inactive: 0.057,inactive: -0.016,inactive: -0.007,inactive: -0.041
EIF4EBP2 (UniProt Q13542),inactive: -0.036,inactive: -0.09,inactive: 0.223,inactive: 0.218,inactive: 0.062,inactive: 0.122,inactive: -0.036,inactive: -0.16,inactive: 0.027,inactive: -0.028,inactive: 0.081,inactive: 0.179,inactive: 0.037,inactive: 0.182,inactive: 0,inactive: 0.007,inactive: 0.025,inactive: 0.061,inactive: -0.027,inactive: -0.227
ERGIC1 (UniProt Q969X5),inactive: 0.026,inactive: 0.018,inactive: -0.057,inactive: 0.019,inactive: 0.055,inactive: 0.039,inactive: -0.018,inactive: -0.002,inactive: 0.028,inactive: 0.017,inactive: -0.004,inactive: 0.043,inactive: 0.024,inactive: -0.033,inactive: 0.018,inactive: 0.006,inactive: -0.006,inactive: -0.011,inactive: -0.015,inactive: 0.063
ELAC2 (UniProt Q9BQ52),inactive: 0.018,inactive: 0.027,inactive: -0.028,inactive: 0.013,inactive: -0.01,inactive: -0.011,inactive: -0.132,inactive: 0.12,inactive: -0.034,inactive: -0.055,inactive: -0.032,inactive: 0.028,inactive: -0.006,inactive: -0.002,inactive: -0.001,inactive: -0.004,inactive: 0.028,inactive: -0.02,inactive: -0.002,inactive: -0.008
EML4 (UniProt Q9HC35),inactive: 0.011,inactive: 0.004,inactive: 0,inactive: -0.01,inactive: 0.003,inactive: 0.014,inactive: -0.018,inactive: 0.046,inactive: 0.001,inactive: 0.018,inactive: -0.021,inactive: -0.028,inactive: 0.028,inactive: -0.018,inactive: -0.011,inactive: 0.011,inactive: 0.062,inactive: 0,inactive: -0.007,inactive: -0.018
EIF3K (UniProt Q9UBQ5),inactive: -0.028,inactive: -0.001,inactive: 0.023,inactive: -0.049,inactive: -0.015,inactive: -0.029,inactive: -0.016,inactive: -0.08,inactive: 0.023,inactive: 0.002,inactive: 0.017,inactive: 0.002,inactive: 0.009,inactive: 0.031,inactive: 0.041,inactive: -0.012,inactive: 0.022,inactive: 0.03,inactive: -0.012,inactive: -0.032
ELP1 (UniProt O95163),inactive: 0.022,inactive: 0.01,inactive: 0.001,inactive: 0.018,inactive: 0,inactive: -0.027,inactive: -0.113,inactive: 0.055,inactive: -0.015,inactive: 0,inactive: -0.035,inactive: -0.006,inactive: -0.005,inactive: -0.017,inactive: 0.009,inactive: -0.005,inactive: -0.017,inactive: -0.005,inactive: 0.005,inactive: -0.013
ELAVL1 isoform 2 (UniProt Q15717),inactive: 0.035,inactive: 0.024,inactive: -0.013,inactive: -0.03,inactive: -0.029,inactive: 0.035,inactive: 0.013,inactive: -0.083,inactive: -0.001,inactive: 0.024,inactive: 0.013,inactive: -0.187,inactive: 0.05,inactive: -0.005,inactive: -0.011,inactive: 0.018,inactive: 0.166,inactive: 0.019,inactive: -0.002,inactive: 0.048
ENO3 (UniProt P13929),inactive: -0.01,inactive: 0.033,inactive: 0.008,inactive: -0.073,inactive: -0.011,inactive: 0.082,inactive: -0.289,inactive: 0.249,inactive: -0.228,inactive: -0.006,inactive: -0.101,inactive: 0.038,inactive: 0.038,inactive: 0.024,inactive: 0.192,inactive: -0.073,inactive: 0.025,inactive: -0.017,inactive: -0.001,inactive: -0.006
EIF2AK1 (UniProt Q9BQI3),inactive: -0.004,inactive: -0.05,inactive: 0.019,inactive: -0.016,active: -0.287,inactive: -0.002,inactive: -0.001,inactive: -0.037,inactive: -0.019,inactive: 0,inactive: 0.044,inactive: -0.044,inactive: 0.068,inactive: -0.021,inactive: -0.028,inactive: -0.004,inactive: 0.041,inactive: -0.004,inactive: 0.122,inactive: 0.101
EIF3A (UniProt Q14152),inactive: 0.009,inactive: -0.001,inactive: 0.037,inactive: -0.031,inactive: -0.035,inactive: 0.012,inactive: -0.023,inactive: -0.06,inactive: -0.017,inactive: 0.033,inactive: 0.003,inactive: -0.018,inactive: 0.102,inactive: 0.022,inactive: -0.017,inactive: 0.022,inactive: 0.168,inactive: 0.001,inactive: -0.009,inactive: -0.031
ENO1 isoform 2 (UniProt P06733),inactive: 0.02,inactive: -0.005,inactive: -0.09,inactive: 0.073,inactive: 0.004,inactive: -0.021,inactive: -0.263,active: 0.269,inactive: 0.01,inactive: 0.01,inactive: -0.174,inactive: 0.085,inactive: -0.13,inactive: -0.001,inactive: 0.009,inactive: 0.033,inactive: -0.033,inactive: 0.022,inactive: -0.004,inactive: -0.015
EOGT (UniProt Q5NDL2),inactive: 0.007,inactive: 0.032,inactive: 0.059,inactive: 0.031,inactive: 0.003,inactive: -0.018,inactive: 0.029,inactive: -0.005,inactive: 0.008,inactive: 0.031,inactive: 0.006,inactive: 0.114,inactive: 0.016,inactive: -0.002,inactive: 0.076,inactive: -0.023,inactive: 0.009,inactive: -0.097,inactive: 0.03,inactive: 0
ELOA (UniProt Q14241),inactive: -0.004,inactive: 0.009,inactive: -0.052,inactive: 0.075,inactive: 0.008,inactive: 0.002,inactive: -0.036,inactive: 0.059,inactive: 0.009,inactive: -0.005,inactive: -0.041,inactive: -0.032,inactive: 0.073,inactive: 0.046,inactive: 0.048,inactive: 0.022,inactive: 0.062,inactive: 0.013,inactive: -0.036,inactive: 0
EML2 isoform 3 (UniProt O95834),inactive: -0.063,inactive: 0.019,inactive: 0.015,inactive: -0.032,inactive: -0.013,inactive: 0.006,inactive: 0.128,inactive: -0.035,inactive: -0.015,inactive: 0.032,inactive: 0.044,inactive: -0.019,inactive: -0.001,inactive: -0.02,inactive: -0.077,inactive: 0.013,inactive: 0.006,inactive: -0.026,inactive: -0.037,inactive: 0
